Strings that start with PEPTIDE1 are HELM notation: dots part the residues, brackets hold end groups and non-standard residues.
Assay: general procedure: Fmoc solid-phase peptide synthesis; 2-chlorotrityl chloride (CTC) resin (100–200 mesh; 1.2 mmol/g, 1 g); HCTU, HOBt, DIPEA
Details: whole synthesis, TFA salts

Substance | isolated yield [%]
PEPTIDE1{F.F.W.R.R.V.K}$PEPTIDE1,PEPTIDE1,1:R1-7:R2$$$V2.0 | 20
PEPTIDE1{[A1Nal].F.[A1Nal].R.R.V.K}$PEPTIDE1,PEPTIDE1,7:R2-1:R1$$$V2.0 | 17

From article PMC6615598 (PLoS Biology, 2019)
